Paper doi:10.1101/700419
Results are given in words; binding and its absence hold for the method and conditions named. Binding seen in cells or lysates may run through a third protein. Some results given as binding are weak or reduced against the parent protein; the word gives no strength. For some assays here: Sequences can lack the tags named with a protein.

By UniProt entry, the sequences of proteins in these tests, tags left out.
UniProt P42271: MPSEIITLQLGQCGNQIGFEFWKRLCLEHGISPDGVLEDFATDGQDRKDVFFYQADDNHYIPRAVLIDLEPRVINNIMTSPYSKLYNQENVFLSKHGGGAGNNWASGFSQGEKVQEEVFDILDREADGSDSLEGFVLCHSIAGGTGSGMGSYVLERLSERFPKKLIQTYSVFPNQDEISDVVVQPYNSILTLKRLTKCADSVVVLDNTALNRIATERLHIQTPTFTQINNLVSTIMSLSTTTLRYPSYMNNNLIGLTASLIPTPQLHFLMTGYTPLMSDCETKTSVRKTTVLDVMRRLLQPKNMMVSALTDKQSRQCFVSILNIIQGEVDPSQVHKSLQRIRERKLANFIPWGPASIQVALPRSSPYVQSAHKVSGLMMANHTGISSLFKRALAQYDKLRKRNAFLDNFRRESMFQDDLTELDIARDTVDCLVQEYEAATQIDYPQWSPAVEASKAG

T1: Msd1-GFP (Drosophila) (UniProt Q9W0G7)
T1 sequence: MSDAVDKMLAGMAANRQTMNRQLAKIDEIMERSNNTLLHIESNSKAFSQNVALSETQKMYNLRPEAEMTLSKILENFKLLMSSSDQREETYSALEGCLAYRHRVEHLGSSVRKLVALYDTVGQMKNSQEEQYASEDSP


Tests used:
[1] = molecular target: γ-Tubulin-GFP (Drosophila) (UniProt P42271); test: co-IP
Msd1-GFP (Drosophila) = molecular target: T1, Msd1-GFP (Drosophila); test: co-IP

Row | binding [1] | binding (Msd1-GFP (Drosophila)) | Binder
1 | binds | – | Dgrip91 (protein, UniProt Q9XYP8 1-917) MSQDRIAGIDVATNSTDISNIINEMIICIKGKQMPEVHEKAMDHLSKMIAANSRVIRDSNMLTERECVQKIMKLLSARNKKEEGKTVSDHFNELYRKLTLTKCDPHMRHSLMTHLLTMTDNSDAEKAVASEDPRTQCDNLTQILVSRLNSISSSIASLNEMGVVNGNGVGAAAVTGAAAVTGAAAVTGAAAVTGAAASHSYDATQSSIGLRKQSLPNYLDATKMLPESRHDIVMSAIYSFTGVQGKYLKKDVVTGRFKLDQQNIKFLTTGQAGMLLRLSELGYYHDRVVKFSDVSTGFNAIGSMGQALISKLKEELANFHGQVAMLHDEMQRFRQASVNGIANKGKKDSGPDAGDEMTLFKLLAWYIKPLHRMQWLTKIADACQVKKGGDLASTVYDFLDNGNDMVNKLVEDLLTAICGPLVRMISKWILEGGISDMHREFFVKSIKDVGVDRLWHDKFRLRLPMLPKFVPMDMANKILMTGKSINFLREICEEQGMMKERDELMKVMESSASQIFSYTPDTSWHAAVETCYQQTSKHVLDIMVGPHKLLDHLHGMRRYLLLGQGDFISILIENMKNELERPGLDIYANDLTSMLDSALRCTNAQYDDPDILNHLDVIVQRPFNGDIGWNIISLQYIVHGPLAAMLESTMPTYKVLFKPLWRMKHMEFVLSMKIWKEQMGNAKALRTMKSEIGKASHRLNLFTSEIMHFIHQMQYYVLFEVIECNWVELQKKMQKATTLDEILEAHEKFLQTILVGCFVSNKASVEHSLEVVYENIIELEKWQSSFYKDCFKELNARKELSKIVEKSEKKGVYGLTNKMILQRDQEAKIFAEKMDIACRGLEVIATDYEKAVSTFLMSLNSSDDPNLQLFGTRLDFNEYYKKRDTNLSKPLTFEHMRMSNVFAVNSRFVICTPSTQE
2 | – | binds | Dgt6 (protein, UniProt Q9VAP2 1-654) MDRTIIAPWKAEEKEQSEKLHRKLQGLALVHPLPDELRKLIAWDMFLKPNQVAFVHVMHYLFRLLDPAEFKRRFFWPITDKKSEANFRSSTVEYLKHLNEKHQLHWANIKSYLVVMPGGMRFINFLLEFVGFVIQELIKQREKSLGLEAGTPNVSAKVMARQNAVMKEYASSYVVNLEENTALLRDKTQKIRRLMADLSADMGVPEEQLADDGFLDEFEATAALGVERVITQPTERKFDLEASLCGLKEAIDLFQVKQAENNQSKEAVEKALRGMRVLFDCDAVTEGDFYDPLGASKMDALLNGFNRISGTIAEQLDANDHYNESNAFVTTDLQALRVELSQSEVQLNNLLKKLNEPSKKDKGSANASGSARVQTLQPATPRFESVISSKFVSTPPIRIDMGGGGGRNAPVRLALQDDFNGKQFDALSNSLLAPAPPRSARKLKALDQSTGIDLNGTLNRSKINDPMQMLRTIHKNTSKVKAAPQANLSSLGSKWKQMQASFGFDEAPVPGAAVISPQTSPTDPSDPFTPLSGSECTRIERIPRTSENNTSLIAKSAAVIKVLEVSRNVLNLSTSPSGRLDALVPHTESHQQDVAPRLQLNDRTINDSLQLDPDFNIENDKNAFNVSHKFDFDQIGGEDDLQNISDSVLKDIIF
